Test results taken from PMC2738650.

Legend:
GST-KLF2 [1] = experiment: EMSA; settings: 10 ug protein, LightShift Chemiluminescent EMSA Kit (Pierce), manufacturer's instructions, pH and temperature not stated, recombinant protein, protein details: GST (N-terminal, pGEX-4T-1), label: biotin (probe), unlabeled as competitor
GST-KLF2 [2] = experiment: competition with a labelled probe; settings: 200-fold excess unlabeled mutant vs biotinylated WT probe; LightShift Chemiluminescent EMSA Kit (Pierce), manufacturer's instructions; 10 ug protein; pH and temperature not stated; recombinant protein; protein details: GST (N-terminal, pGEX-4T-1); label: none (cold competitor)

Sequence	binding result (GST-KLF2 [1])	binding result (GST-KLF2 [2])
ACTCACTACCGACCACCCGCAAACAGCAGG (double strand) [CXCR4 promoter -204/-175 CACCC probe (WT)]	binds	–
ACTCACTACCGACTGTTTGCAAACAGCAGG (double strand) [CXCR4 promoter -204/-175 mutated CACCC (Cold MU Pr)]	–	no binding

The exact form of at least one protein or probe is not confirmed. For some assays here: Negatives hold for the conditions tested.
